Experimental findings from PubChem BioAssay AID651582 (Sanford-Burnham Center for Chemical Genomics, 2012) are described below.

The structures appear in SMILES notation. This is one part of the list.

This assay can be described thus: inhibitors of triacylglycerol accumulation, primary screen, cell-based, uHTS, fluorescence, H9c2 (AID 651582). As to conditions: H9c2 cells, Nile Red lipid (TAG) fluorescence; DAPI nuclei count viability; at 12.5 µM; cells loaded with 200 µM oleic acid.
As to `Nc1cccc([As](=O)(O)c2ccccc2)c1`, the DAPI activity (viability loss) amounted to 4.42%.

As for `CCCOc1ccc(NP(C)(=O)Oc2ccc(Cl)cc2)cc1` (centres undefined), the DAPI activity (viability loss) worked out at 7.16%.

For the compound `O=P1(Nc2ccc(Br)cn2)COc2ccccc2OC1`, the DAPI activity (viability loss) worked out at 7.92%.

Regarding `NS(=O)(=O)c1cccc(NC(=O)COC(=O)C(O)(c2ccccc2)c2ccccc2)c1`, the DAPI activity (viability loss) stood at 1.53%.

Take `Cc1ccc(OCC(=O)OC2CN3CCC2CC3)cc1` (centres undefined): the DAPI activity (viability loss) is -6.11%.

As for `O=C(O)C(O)c1ccc(N(CCCl)CCCl)cc1.c1ccncc1` (centres undefined), the DAPI activity (viability loss) is -2.26%.

On to `O=P1(Nc2ccccn2)COc2ccccc2OC1`, for which the DAPI activity (viability loss) was 11.8%.

For the compound `O=[N+]([O-])c1cc([N+](=O)[O-])c(-n2nnc3ccccc32)c([N+](=O)[O-])c1`, the DAPI activity (viability loss) is -4.67%.

Turning to `CN(CCCl)Cc1cc(Cl)c(NC2=NCCN2)c(Cl)c1`, the DAPI activity (viability loss) was -2.53%.

In the case of `O=P1(N(CCCl)CCCl)NCCC(C(F)(F)F)O1` (centres undefined), the DAPI activity (viability loss) amounted to 11%.

`Clc1n[nH]nc1-c1nn[nH][15n]1`: the DAPI activity (viability loss) was found to be 0.505%.

In the case of `CC(C)(C)C(=O)NC(Sc1ncccn1)C(Cl)(Cl)Cl` (centres undefined), the DAPI activity (viability loss) was -2.97%.

Regarding `O=[N+]([O-])c1cc([N+](=O)[O-])c(-c2cnn(-c3ccccc3)c2)c([N+](=O)[O-])c1`, the DAPI activity (viability loss) is -19.4%.

As to `COc1ccccc1CNC(=O)COC(=O)C(O)(c1ccccc1)c1ccccc1`, the DAPI activity (viability loss) stood at 3.49%.

For the compound `CC(C)/C=N\N=C(\N)N[N+](=O)[O-]`, the DAPI activity (viability loss) came to 3.72%.

With `CN(C(=O)Cc1ccc(Cl)c(Cl)c1)[C@@H]1CCCC[C@H]1N1CCCC1`, the DAPI activity (viability loss) is 8.97%.

Regarding `Cc1nc2ccc3ccccc3c2s1.O=[N+]([O-])c1cc([N+](=O)[O-])c(O)c([N+](=O)[O-])c1`, the DAPI activity (viability loss) was determined as 3.57%.

Take `CC1(CBr)Cn2c(nc3ccccc3c2=O)S1` (centres undefined): the DAPI activity (viability loss) stood at 3.63%.

Regarding `O=C(OC1CN2CCC1CC2)c1ccc(Cl)cc1` (centres undefined), the DAPI activity (viability loss) is -14.7%.

In the case of `COc1cc(C(=O)NCC2(N3CCOCC3)CCCCC2)cc(Cl)c1OC(C)C`, the DAPI activity (viability loss) stood at 2.72%.

Regarding `O=[As](O)(O)c1cccnc1`, the DAPI activity (viability loss) was 8.15%.

On to `COc1ccccc1OP(C)(=O)Nc1cccc(Br)c1` (centres undefined), for which the DAPI activity (viability loss) is -5.9%.

Consider `O=[As](O)(c1cccc(O)c1)c1cccc(O)c1`, for which the DAPI activity (viability loss) was -2.24%.

On to `Cc1cccc(OCC(=O)OC2CN3CCC2CC3)c1` (centres undefined), for which the DAPI activity (viability loss) is -0.0983%.

Turning to `CP(=O)(Nc1cccc(Br)c1)Oc1ccccc1` (centres undefined), the DAPI activity (viability loss) worked out at 4.66%.

`Cc1ccc(NCCc2c([N+](=O)[O-])cc([N+](=O)[O-])cc2[N+](=O)[O-])cc1`: the DAPI activity (viability loss) is -1.84%.

`Cc1ccc(C)c(NP(C)(=O)Oc2ccccc2)c1` (centres undefined): the DAPI activity (viability loss) is -2.54%.

For the compound `O=C(O)c1cccc(Nc2c([N+](=O)[O-])cc([N+](=O)[O-])cc2[N+](=O)[O-])c1`, the DAPI activity (viability loss) was -4.28%.

For `O=P(Nc1nccs1)(Oc1ccccc1)Oc1ccccc1`, the DAPI activity (viability loss) is -2.54%.

`CS(=O)(=O)c1cc([N+](=O)[O-])c2no[n+]([O-])c2c1`: the DAPI activity (viability loss) was determined as 4.86%.

Turning to `Nc1ccccc1[As](=O)(O)c1ccccc1`, the DAPI activity (viability loss) is -11.2%.

For the compound `NC(=O)Nc1ccc([As](=O)(O)O)cc1`, the DAPI activity (viability loss) is -1.92%.

Take `N#CCCN(C(=O)COC(=O)C(O)(c1ccccc1)c1ccccc1)c1ccc(F)cc1`: the DAPI activity (viability loss) is -3.93%.

`CN(C(=O)Cc1ccccc1)[C@@H]1CC[C@]2(CCCO2)C[C@H]1N1CCCC1`: the DAPI activity (viability loss) was -1.23%.

For `CN(C)C(=O)c1cc([N+](=O)[O-])cc2c1-c1c(cc([N+](=O)[O-])cc1[N+](=O)[O-])C2=O`, the DAPI activity (viability loss) was -49.4%.

Turning to `CN(C(=O)Cc1ccc(Cl)c(Cl)c1)[C@H]1CC[C@@]2(CCCO2)C[C@@H]1N1CCCC1`, the DAPI activity (viability loss) was -1.81%.

`CC1=NCCc2c1[nH]c1ccccc21.O=[N+]([O-])c1cc([N+](=O)[O-])c(O)c([N+](=O)[O-])c1`: the DAPI activity (viability loss) was found to be 0.358%.

With `Cc1ccc(NP(=O)(Oc2cccc(C)c2)Oc2cccc(C)c2)nc1`, the DAPI activity (viability loss) came out at 8.29%.

As for `CCNC(=S)/N=C(\N)N[N+](=O)[O-]`, the DAPI activity (viability loss) was -1.05%.

On to `COc1ccc(OP(C)(=O)Nc2ccc(SC(F)(F)F)cc2)cc1` (centres undefined), for which the DAPI activity (viability loss) is -4.4%.

As for `O=P1(N(CCCl)CCCl)OCCC2CCCCN21` (centres undefined), the DAPI activity (viability loss) was -1.56%.

Take `CCN(CC)CCCOC(=O)C(O)(c1ccccc1)C1CCCCC1` (centres undefined): the DAPI activity (viability loss) was 13.8%.

`CCC(=O)N1C2C3N(C(=O)CC)C1C1N(C(=O)CC)C(C(N1C(=O)CC)N3C(=O)CC)N2C(=O)CC`: the DAPI activity (viability loss) was found to be 8.37%.

`Cc1c([N+](=O)[O-])cc([N+](=O)[O-])c(Br)c1[N+](=O)[O-]`: the DAPI activity (viability loss) was found to be 3.95%.

As for `COC(=O)c1cc2c(s1)N=C(c1ccccc1)N(C)P2(=O)N1CCOCC1` (centres undefined), the DAPI activity (viability loss) was -0.924%.

Regarding `Cc1ccc(OP(=O)(Nc2ccccn2)Oc2ccc(C)cc2)cc1`, the DAPI activity (viability loss) was -0.456%.

For `CC(=O)NC(SC(=S)N(CC(C)C)CC(C)C)C(Cl)(Cl)Cl` (centres undefined), the DAPI activity (viability loss) is -10%.

With `Cc1ccccc1OP(=O)(Nc1ccccn1)Oc1ccccc1C`, the DAPI activity (viability loss) is -1.97%.

As for `CC(NC(=O)COC(=O)C(O)(c1ccccc1)c1ccccc1)c1ccccc1` (centres undefined), the DAPI activity (viability loss) came out at 0.0647%.

For the compound `CN(C)C(=O)Oc1noc2ccccc12`, the DAPI activity (viability loss) worked out at 5.21%.

In the case of `O=[N+]([O-])c1cc([N+](=O)[O-])c(OC2CCCCC2O)c([N+](=O)[O-])c1` (centres undefined), the DAPI activity (viability loss) is -9.92%.

On to `O=c1c2cc([N+](=O)[O-])ccc2[nH]c2c([N+](=O)[O-])cc([N+](=O)[O-])cc12`, for which the DAPI activity (viability loss) was -44%.

`CCCCCOc1ccc(NP(C)(=O)Oc2ccc(Cl)cc2Cl)cc1` (centres undefined): the DAPI activity (viability loss) was 4.39%.

On to `O=P1(Nc2nc3ccc(Cl)cc3s2)COc2ccccc2O1` (centres undefined), for which the DAPI activity (viability loss) amounted to 3.97%.
